In publication PMC8616936:
No constants are given. Whether binding was seen depends on the method and setting. Some binding calls cover weakened binding; strength is not graded here.

Biological target: T1, D. melanogaster DROSHA (D. melanogaster) (UniProt Q7KNF1)
T1 sequence: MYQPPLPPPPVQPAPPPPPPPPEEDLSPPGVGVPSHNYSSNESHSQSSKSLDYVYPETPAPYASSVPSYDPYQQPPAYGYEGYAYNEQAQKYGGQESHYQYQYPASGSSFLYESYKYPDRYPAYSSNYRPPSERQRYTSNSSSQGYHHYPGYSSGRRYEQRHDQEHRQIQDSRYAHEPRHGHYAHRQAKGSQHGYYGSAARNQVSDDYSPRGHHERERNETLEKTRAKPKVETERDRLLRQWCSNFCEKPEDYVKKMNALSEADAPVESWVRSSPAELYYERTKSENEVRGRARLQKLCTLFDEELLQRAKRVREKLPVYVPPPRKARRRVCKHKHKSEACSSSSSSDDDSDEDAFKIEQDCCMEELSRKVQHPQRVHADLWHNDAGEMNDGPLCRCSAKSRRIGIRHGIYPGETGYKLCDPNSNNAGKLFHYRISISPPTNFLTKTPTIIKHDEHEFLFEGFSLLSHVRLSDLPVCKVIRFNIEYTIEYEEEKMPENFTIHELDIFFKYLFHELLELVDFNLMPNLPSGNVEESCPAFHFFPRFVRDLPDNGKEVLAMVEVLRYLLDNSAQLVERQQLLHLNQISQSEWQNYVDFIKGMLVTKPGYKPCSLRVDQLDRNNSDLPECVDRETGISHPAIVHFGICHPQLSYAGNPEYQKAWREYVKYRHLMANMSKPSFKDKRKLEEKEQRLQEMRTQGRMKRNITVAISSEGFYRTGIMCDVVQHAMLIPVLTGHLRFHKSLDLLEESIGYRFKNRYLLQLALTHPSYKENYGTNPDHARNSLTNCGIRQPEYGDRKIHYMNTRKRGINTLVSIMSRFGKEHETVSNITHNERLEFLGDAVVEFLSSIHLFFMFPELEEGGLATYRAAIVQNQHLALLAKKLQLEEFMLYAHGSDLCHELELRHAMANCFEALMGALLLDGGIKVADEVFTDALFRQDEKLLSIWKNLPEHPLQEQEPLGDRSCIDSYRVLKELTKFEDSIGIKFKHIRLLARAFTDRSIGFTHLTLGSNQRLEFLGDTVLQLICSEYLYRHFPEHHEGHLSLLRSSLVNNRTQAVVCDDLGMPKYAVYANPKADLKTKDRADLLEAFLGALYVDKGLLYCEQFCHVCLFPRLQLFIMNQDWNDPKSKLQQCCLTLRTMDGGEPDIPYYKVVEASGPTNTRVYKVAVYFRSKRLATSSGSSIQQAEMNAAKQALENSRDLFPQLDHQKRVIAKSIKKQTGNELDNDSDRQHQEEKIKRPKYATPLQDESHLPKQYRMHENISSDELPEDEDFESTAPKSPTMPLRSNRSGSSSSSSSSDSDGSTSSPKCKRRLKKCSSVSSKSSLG
Assay: tandem affinity co-purification (Ni-NTA, then IgG sepharose); both proteins co-expressed in HEK293E; lysate in T500 (20 mM Tris-HCl pH 7.5, 500 mM NaCl, 4 mM beta-mercaptoethanol) with 2 ug/ml RNase A; Ni-NTA (His tag on the DGCR8 ortholog), washes with 0 and 2000 mM NaCl and 50 mM imidazole, eluted with 300 mM imidazole; eluate bound to IgG sepharose (protein G on DROSHA) at 4 °C for 4 h

B1: D. melanogaster PASHA (protein, UniProt Q9V9V7 1-642)
chain: MAEKPLADCPDSGQVRKRPRLEDEEQELKVAGFSLSAIEEMRRTRDNELQNEPMDQQLRQFQVLDEVGSGSDEDDESDNASEQQGGRYGEGGDEEEEAADGDGEEYDSSEFDDDEIENLLDEKLPEELRESKQPKYEQRFKTVLEEKRLNHFEVLPEGWVQVTHNSGMPLFLHRKTRVCCASRPYFLGTGSARKHAVPLGAIPCLNYRRALEEESEVEQQKTDGAPPVAVCPMAGASALPAEAMDVEGKENNEGSTDSKTQPDGITALMPAAKIVTVNENTQKESITPEQLNTYCQKLFKFKVIRVLRFRSWNARRKFTKNRKHIKNIQRPTLPDGTKLIKFPILANAGEGSTNPRGRKEWIMNPNGKSFVCILHEYVQHALKTQPTYEFKELQNAATPYSATVSVNNLKYGTGYGTSKKQAKSEAARETLEILIPDVKDKITGNNKDQKSGTAKKAQSDLSVFDDIRIEDPRVTEFCNKTTEPSPNAILLTCLQRNYGSDVQISQEINRTANNKNEFTMTVGKHTAKVVCKNKREGKQLASQAILQILHPHIQTWGSLLRLYGNNSIKTFKEKKLEEQEITVLQSKAAVNQPNYAILDKLKSEMLKLCAKQESVLTMGTFVPPSDVDLPTSSGSNLNNVEL
binding: binds
